Measurements reported in PubChem BioAssay AID686943 (Drosophila RNAi Screening Center, 2013)

Purpose: 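Fly genes whose loss alters ERK activation after insulin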 (primary screen)
Cells: Drosophila S2R+ haemocyte-like cells expressing YFP-tagged ERK (Rolled)
Reagents: long dsRNA against Drosophila genes
Conditions: insulin stimulation versus unstimulated cells; dose and duration not given
Detection: 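Per-plate z-scores of phospho-ERK immunostaining normalised to YFP-tagged ERK, measured with and without insulin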
Scale: replicate 1, z-score of dpERK with insulin: higher = more active ERK per ERK-YFP after insulin
The deposit covers about 23,000 reagents; this is a random part of those that have a named target and a result. 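Extra replicates exist only for a retested subset of genes; insulin dose and duration not given; both raised and lowered dpERK matter.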 A plus sign joins genes that one reagent is predicted to hit. Further read-outs or replicates are left out here. No sequences are given here. The record does not give: the amount of reagent, the time to read-out.

The first 3 records, ahead of the listing:
gene	dsRNA	replicate 1, z-score of dpERK with insulin
CG3473 (GeneID 34849)	DRSC01915	0.13
Hinfp (GeneID 47718)	DRSC18484	0
pirk (GeneID 37468)	DRSC04269	-0.3

The listing, from the first entry:
gene	dsRNA	replicate 1, z-score of dpERK with insulin
CG3473 (GeneID 34849)	DRSC01915	0.13
Hinfp (GeneID 47718)	DRSC18484	0
pirk (GeneID 37468)	DRSC04269	-0.3
CG1441 (GeneID 36029)	DRSC06448	0.53
sut2 (GeneID 44269)	DRSC07701	0.39
CG3557 (GeneID 33426)	DRSC00614	-0.33
robl37BC (GeneID 35166)	DRSC02472	0.37
CG42269 (GeneID 38689)	DRSC10670	0.68
CG42269 (GeneID 38689)	DRSC10672	-0.07
Impbeta11 + asRNA:CR43429	DRSC07525	0.2
CG7668 (GeneID 40190)	DRSC10901	0.74
CG14421 (GeneID 31285)	DRSC17918	1.04
TTLL6B (GeneID 43282)	DRSC15932	0.08
CG42541 (GeneID 31344)	DRSC17973	-0.06
CG42541 (GeneID 31344)	DRSC18119	-4.22
CG42541 (GeneID 31344)	DRSC18120	0.06
CG13747 (GeneID 35907)	DRSC06418	-3.19
FER (GeneID 41118)	DRSC12735	2.28
FER (GeneID 41118)	DRSC16673	-0.19
Usp5 (GeneID 38375)	DRSC08244	-0.8
eIF3l (GeneID 39386)	DRSC10530	-0.61
CG2021 (GeneID 38229)	DRSC08546	0.13
Cip4 (GeneID 38534)	DRSC08091	0.58
Cip4 (GeneID 38534)	DRSC08469	-0.17
Cip4 (GeneID 38534)	DRSC21740	-3.88
NimA (GeneID 318930)	DRSC01353	0.38
NimA (GeneID 318930)	DRSC22170	0.57
Ance-5 (GeneID 37980)	DRSC04055	0.44
CG3505 (GeneID 41777)	DRSC15489	0
l(2)10685 (GeneID 33293)	DRSC00665	-0.23
D19A (GeneID 38718)	DRSC11133	-2.96
Mcm2 (GeneID 40973)	DRSC16734	-1.09
Act87E (GeneID 48632)	DRSC22578	-0.35
CG13138 (GeneID 34381)	DRSC02235	-0.19
rho-4 (GeneID 32109)	DRSC19761	-0.28
rho-4 (GeneID 32109)	DRSC19762	0.29
viaf (GeneID 39364)	DRSC10326	-0.36
Srp72 (GeneID 42439)	DRSC15800	-0.05
CG8993 (GeneID 38301)	DRSC08616	0.09
CG4115 (GeneID 41499)	DRSC15545	-1.37
Ir52d (GeneID 36716)	DRSC06264	0.14
Pex1 (GeneID 45460)	DRSC11358	0.39
CG34012 (GeneID 3885632)	DRSC09089	-0.68
CG17107 (GeneID 34467)	DRSC02575	0.51
CG17107 (GeneID 34467)	DRSC22627	0.97
CG14352 (GeneID 33341)	DRSC00382	0.37
bero (GeneID 35355)	DRSC03211	0.16
tHMG1 (GeneID 42650)	DRSC16181	0.95
CG10904 (GeneID 37817)	DRSC04084	-0.52
Cyp4g15 (GeneID 32093)	DRSC20240	-0.92
Prosalpha3 (GeneID 37378)	DRSC04644	-0.93
onecut (GeneID 45816)	DRSC17175	-0.37
CG8248 (GeneID 35888)	DRSC07124	0.19
CG1812 (GeneID 33049)	DRSC20557	0.49
CG13255 (GeneID 50109)	DRSC11702	0.31
TyrRII (GeneID 42135)	DRSC15150	2.47
Ald2 (GeneID 43189)	DRSC14730	-1.21
Ald2 (GeneID 43189)	DRSC15799	-0.02
